# Data from paper PMC10617209.
# The chains behind the UniProt entries cited, without tags or fusion partners.
# UniProt P40337: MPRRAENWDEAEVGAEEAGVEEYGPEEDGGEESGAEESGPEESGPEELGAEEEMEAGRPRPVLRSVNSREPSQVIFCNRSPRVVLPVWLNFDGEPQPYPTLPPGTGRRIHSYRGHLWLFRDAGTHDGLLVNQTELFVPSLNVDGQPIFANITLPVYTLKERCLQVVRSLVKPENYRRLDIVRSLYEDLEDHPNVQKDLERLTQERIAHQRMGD
# UniProt P17302: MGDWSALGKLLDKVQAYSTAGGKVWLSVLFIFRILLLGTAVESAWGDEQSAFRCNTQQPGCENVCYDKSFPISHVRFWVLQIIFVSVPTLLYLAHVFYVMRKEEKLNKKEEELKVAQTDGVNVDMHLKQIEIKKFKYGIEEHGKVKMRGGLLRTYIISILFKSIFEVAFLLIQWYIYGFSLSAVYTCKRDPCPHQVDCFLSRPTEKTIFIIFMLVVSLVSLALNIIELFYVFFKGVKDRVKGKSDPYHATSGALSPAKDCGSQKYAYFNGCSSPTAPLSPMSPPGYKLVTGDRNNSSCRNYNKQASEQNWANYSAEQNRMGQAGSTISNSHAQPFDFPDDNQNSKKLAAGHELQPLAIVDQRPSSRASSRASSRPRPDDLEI
# UniProt P08050: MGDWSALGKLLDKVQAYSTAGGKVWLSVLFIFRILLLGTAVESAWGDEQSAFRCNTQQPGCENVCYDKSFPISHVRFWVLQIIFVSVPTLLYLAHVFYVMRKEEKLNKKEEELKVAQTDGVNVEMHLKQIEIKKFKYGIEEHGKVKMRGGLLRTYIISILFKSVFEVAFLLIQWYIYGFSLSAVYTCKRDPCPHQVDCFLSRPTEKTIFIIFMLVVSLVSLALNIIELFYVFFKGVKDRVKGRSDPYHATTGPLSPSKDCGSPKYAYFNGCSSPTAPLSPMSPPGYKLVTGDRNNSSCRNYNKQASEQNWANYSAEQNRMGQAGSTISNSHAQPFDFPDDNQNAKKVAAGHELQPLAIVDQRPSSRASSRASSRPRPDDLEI
# Results are given in words; binding and its absence hold for the method and conditions named. Binding seen in cells or lysates may run through a third protein. Some entries that bind do so weakly or less than the wild type.
# Assays:
# [1] = target: human Von Hippel-Lindau (VHL), coding sequence in plasmid CMV-MCS-V5-SV40-neomycin (human) (UniProt P40337); experiment: co-IP; lysate of SH-SY5Y cells transfected with plasmids (MLKL WT or S454A, Cx43, VHL), without or with TSZ for 10 h; antibody on Dynabeads, 4 °C for 2 h, washed thrice with PBST; Western blot
# [2] = target: T1, mixed lineage kinase domain-like protein (MLKL), rat, endogenous in thalamic VPN (rat (endogenous in Sprague-Dawley rat thalamus)) (UniProt D3ZKP6); experiment: co-IP; lysate of rat thalamic VPN, Sham and 2 weeks after dMCAO; antibody on Dynabeads, incubated with the extract at 4 °C for 2 h, washed thrice with PBST; Western blot
# T1 sequence: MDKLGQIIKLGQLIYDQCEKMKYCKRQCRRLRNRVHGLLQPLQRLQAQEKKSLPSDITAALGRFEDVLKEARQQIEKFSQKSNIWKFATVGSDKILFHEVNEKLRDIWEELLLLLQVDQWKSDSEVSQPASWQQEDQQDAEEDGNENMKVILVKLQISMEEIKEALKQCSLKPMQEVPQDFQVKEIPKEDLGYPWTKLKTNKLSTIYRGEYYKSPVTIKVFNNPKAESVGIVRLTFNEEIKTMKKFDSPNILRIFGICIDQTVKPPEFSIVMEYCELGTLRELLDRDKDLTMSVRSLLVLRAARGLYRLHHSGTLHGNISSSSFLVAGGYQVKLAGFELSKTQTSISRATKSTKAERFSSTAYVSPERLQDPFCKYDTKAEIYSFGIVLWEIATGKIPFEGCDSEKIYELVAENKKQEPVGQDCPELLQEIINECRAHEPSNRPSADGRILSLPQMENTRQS
binding [1],binding [2],Substance
binds,–,"human connexin 43 (Cx43, GJA1) (WT), full-length coding sequence in plasmid CMV-MCS-Myc-SV40-neomycin (from UniProt P17302 1-382)"
–,binds,"connexin 43 (Cx43), rat, endogenous in thalamic VPN (from UniProt P08050 1-382)"
